The results in this text go back to PubChem BioAssay AID1508600 (Functional Genomics Laboratory (NCATS/FGL), 2020).

About 3,700 (7%) of roughly 53,000 sequences were called active.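 The calls were made as follows: active = gene knockdowns whose robust z-score for IL-1 alpha signal is at least 2 or at most -2, so actives lie on both sides; inactive = the rest.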 The list shows a part of the results.

The assay in a line: Components of the Cytosolic LPS Sensing Pathway: Gene Identification via Genome-wide siRNA Screen.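 Also: robust z of the log signal after scaling to non-targeting control siRNA wells of the plate.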 The following applies: RAW264.7 macrophages, IL-1a HTRF, actives lie on both sides, screened at 100 nM (by protocol), cells primed 5 h with Pam3CSK4 first. The gist of the method: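 Using IL-1a HTRF as read-out, the screen measured release from RAW264.7 cells after 48h siRNA knockdown (100 nM), 5 h Pam3CSK4 priming and 24 h cytosolic LipidA. Values were expressed relative to negative-control wells as robust z-scores.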
A general note: In TR-FRET formats the signal depends on donor and acceptor labels being close together.
For CGGAAUGAGUCUGCUGGUCTT against Mrgprg, the z-score was inactive: 0.884.
The same measure for GGAGAUCGUCUCUCUCAUCTT against Pcf11: inactive: 0.792.
Next, GCUGAAACUAGACAUUAAGTT against Taf11: inactive: 0.0932.
GGAGAAUCCAAAGUAGAUCTT against Mycbp: the z-score was inactive: 0.492.
In the case of CGUGUGAGGUUUGUGAAAGTT against Gzmf, the z-score is inactive: -0.346.
Turning to GGACCUCGAUGAAACCAUCTT against Stx6, the z-score is inactive: -0.8.
Next, GGGAUAAAAUUCUACCUAATT against Htr2b: inactive: 0.724; GGAAGUGUGGUGAAACUGUTT against Clec4d: inactive: -0.702; GGGUUGCCCAGAAUGUAAATT against Cga: inactive: 0.38.
The same measure for GGACGAGAACGAUAAUUACTT against Dsc2: inactive: 0.335.
Next, GCAAUACGCAAACAUUCACTT against Mplkip: inactive: 0.525; GCAAUGUGAGAAUUUUAACTT against Psg26: active: 2.03.
For GGAGGAUGAAACAAGCCUUTT against Tnfsf11, the z-score is inactive: 0.565.
With GGUACAAACACGAUCAAGGTT against Aox4, the z-score was inactive: 0.654.
For GGGACAAAAUUAUUCCUCCTT against Med14, the z-score is inactive: -0.977.
As for GCUUUACUUCUUCCUCAUUTT against Olfr924, the z-score was inactive: -0.994.
The same measure for GGUCUUGGGUAUUGUCGUGTT against Adgrg1: inactive: 0.754.
Next, GGAACAUUGAACUGAUUUGTT against Mapre1: inactive: 0.351; GCUUCCAUCUUUACUAAGATT against Cpt2: inactive: 0.872; GCUGAACCUUUGAAAUUUCTT against Scmh1: inactive: -1.3.
The same measure for GGCUCGGUUUCAGUGUACUTT against Zscan5b: inactive: 1.92; for CCAUUUUAUGGGAGUAUUATT against Mms22l: inactive: -0.0345.
GGCAGAAUUCUUCACCUCCTT against P4ha2: the z-score is inactive: -1.05.
The same measure for GCAAUGAAUUAGCCUUAAATT against Pkia: inactive: 1.42; for GCAUUAGAUCAGACCAUUUTT against Ift46: inactive: 1.25.
Next, GGUCAACCUUCUGAAGCAGTT against Cfap100: inactive: -0.979.
Consider GCUUGAUAUAGUAUCCUUUTT against Prpf38b, for which the z-score was active: -2.05.
For GGCCAGUGCCUUUGUGAUGTT against Mtnr1b, the z-score was inactive: -1.28.
Turning to GGUCAAAGGUGAAGAGAAATT against Chgb, the z-score is inactive: 1.43.
Next, “GCGGUUUUGUGUCAGGGACTT against 4833408A19Rik”: inactive: -0.682; GGGAUUAUAGGAAAAUUCUTT against Nhlh1: inactive: 1.3.
Consider GUAAUUUAUCCUUUGCUGATT against Olfr378, for which the z-score is inactive: 0.498.
As for GCGCUCCUUCUGUGAUUCATT against Olfm4, the z-score was inactive: -0.564.
With CGCAGAGUUAAUUUCUUGUTT against Rchy1, the z-score was inactive: 0.995.
The same measure for GGUUGUUUAUGCUUUCUCUTT against Arhgap32: inactive: -0.766; for GGCCUUUGUUCAGUCCUCCTT against Zscan5b: inactive: 0.483.
As to CCGGGAGAUUACAAGUAGCTT against Barhl2, the z-score is inactive: -1.16.
Regarding GGUGGUUACUAGGAACAAGTT against Sgpp2, the z-score is inactive: -1.13.
Next, GGAAAGCCUUGGCUACAUGTT against Olfr97: inactive: -0.211; GCGCAACCUGUGCUUUUCUTT against Hoxd10: inactive: 1.56; GCUUUAUAAGGCUAUUGGATT against Rcl1: inactive: -0.894.
Take GUCACUUGGCUUCCAUUGATT against Olfr510: the z-score was inactive: -1.46.
Next, CCAGCCGUAUUACAACUACTT against Bpnt1: active: 2.12.
For CCAAAGAUACCAUAGGAUUTT against Zc3h12a, the z-score was inactive: 1.05.
As to GGAAUCUAUCUGAUCACCATT against Olfr1537, the z-score is inactive: -0.431.
For CCAUCUGUCAUGACUACCUTT against Timm9, the z-score is inactive: 0.911.
The same measure for CCAACUAAGUGAAAUUCCATT against Aspn: inactive: -1.26.
As to CCCGGAUGAUGGAGAUAUUTT against Mnd1, the z-score was inactive: -1.
Next, GCUGCUGGAGUGCAACUAATT against Tradd: inactive: 0.391.
As to GGGCUCAAGAAAUAAAUCATT against Aspa, the z-score is inactive: -0.591.
Turning to GUCAUCUUCCUCCAGCACCTT against Olig2, the z-score was inactive: -0.773.
As for GGACAAAGAUUGAAGAAUGTT against Mib1, the z-score is inactive: -0.0376.
The same measure for GGCUUUAGCAAUGGAAAAUTT against Ankhd1: inactive: -0.453; for GCUUGAUCGAAGAAAGACATT against Tdrd3: inactive: 0.709.
The same measure for GCAUUUAUGGAGUACUUACTT against Colgalt1: inactive: -1.82; for GGAUUUUCUUUCAGAUCCGTT against P2ry12: inactive: 0.762.
As to CCCAGAGCAUGCCAUCAACTT against Orm3, the z-score was inactive: -0.38.
Next, GCAAUGAAGAGUAACCGCUTT against Pak2: inactive: -0.0089; GGUUAUCGUUCUUGUCAAUTT against Ifih1: inactive: -1.16.
For the sequence UGACUUGUGAGAUUGAUCGTT against Fuom, the z-score is inactive: -1.07.
The same measure for GGAAUUCCGAAUAUUCCAGTT against Tsen2: inactive: 1.51; for GGCUUUUCAUUUGAUUAAGTT against Gpcpd1: inactive: -1.1; for CGCAAGGCAUUCUCUACUUTT against Olfr1029: inactive: 1.1.
For the sequence GGCCUUCAACUUGGUUAAGTT against U2af2, the z-score is inactive: -0.339.
GGUUUUGACCAGACCAUUATT against Lsm8: the z-score is inactive: 0.923.
The same measure for GGUGUGUGCAGGACUAAAUTT against Cacng3: inactive: 0.955.
As for UGUGCAUAGUCAAUCUCAGTT against Bag5, the z-score is inactive: 0.745.
For GCCACUACCGAUUUUCCCUTT against Lctl, the z-score is active: -2.29.
As for GCAAGGUAAGUUAGAUAUUTT against Armcx3, the z-score is inactive: -0.318.
